Measured values taken from patent US20180155399A1.
Results are given in words; binding and its absence hold for the method and conditions named. Some entries that bind do so weakly or less than the wild type.

The chains behind the UniProt entries cited, without tags or fusion partners. Where a name states a change or a piece, a line headed by the entry shows the natural chain unless it says otherwise. Residues count along the entry.
UniProt Q07954, residues 805-1184: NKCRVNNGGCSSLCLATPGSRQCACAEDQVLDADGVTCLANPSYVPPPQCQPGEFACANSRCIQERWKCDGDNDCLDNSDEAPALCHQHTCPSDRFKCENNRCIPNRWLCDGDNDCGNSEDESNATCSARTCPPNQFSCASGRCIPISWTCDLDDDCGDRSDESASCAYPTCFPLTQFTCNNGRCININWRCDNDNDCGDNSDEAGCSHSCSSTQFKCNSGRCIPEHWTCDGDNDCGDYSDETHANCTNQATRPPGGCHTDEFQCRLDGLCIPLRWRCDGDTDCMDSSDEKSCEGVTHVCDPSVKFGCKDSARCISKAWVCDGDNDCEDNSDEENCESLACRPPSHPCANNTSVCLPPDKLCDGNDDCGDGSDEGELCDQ
UniProt P10646, residues 29-304: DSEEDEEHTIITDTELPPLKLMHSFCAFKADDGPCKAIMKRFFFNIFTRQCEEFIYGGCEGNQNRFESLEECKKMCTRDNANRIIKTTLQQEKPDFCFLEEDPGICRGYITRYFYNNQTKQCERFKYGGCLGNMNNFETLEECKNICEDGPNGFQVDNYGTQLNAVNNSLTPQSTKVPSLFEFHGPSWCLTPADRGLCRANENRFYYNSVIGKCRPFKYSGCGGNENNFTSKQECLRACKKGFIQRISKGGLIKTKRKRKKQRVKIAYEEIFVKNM

Molecular target: recombinant human LRP-1 Cluster II Fc Chimera protein (R&D Systems) (human) (UniProt Q07954)
Assay: SPR (BIAcore T200), 10 nM fl-TFPI over LRP-1 Cluster II Fc

Question: How did the binding turn out when “full length human TFPI (from UniProt P10646 29-304)” was run?
Answer: binds
